{"source": "PubChem BioAssay AID1259297 (Sanger Institute, 2017)", "purpose": "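Kinase knock-downs that lower colorectal cancer cell viability or act with drugs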 (primary screen)", "cell system": "human RCM1 colorectal cancer cell line", "reagent": "siRNA pool against human genes", "conditions": "separate arms: DMSO vehicle, or one anchor drug at a mild dose: BYL719 1 µM, cetuximab 5 µg/ml, trametinib 10 nM", "measurement": "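Replicate-mean well viability as a share of non-targeting pool control, a robust z-score without drug, and synergy scores for BYL719, cetuximab and trametinib arms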", "reading the numbers": "viability z-score, knock-down alone: higher = more viable cells than non-targeting controls", "hit rule": "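Called essential if knock-down without drug gives a viability robust z-score under -3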", "meaning of the calls": "active = essential when knocked down alone; inactive = no clear loss of viability alone", "note": "This is one part, drawn at random, of 794 reagents. 13 of all reagents (1.6%) were called active. 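Calls reflect knock-down without drug only; drug synergy is judged separately, with scores above 0.15 counted as synergy.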 Entries without a mark were called inactive. Further read-outs or replicates are left out here. The record does not give: the amount of reagent, the time to read-out."}
{"target gene":"CDK19 (cyclin dependent kinase 19)","viability z-score, knock-down alone":-1.18}
{"target gene":"WEE1 (WEE1 G2 checkpoint kinase)","viability z-score, knock-down alone":-2.93}
{"target gene":"CDK18 (cyclin dependent kinase 18)","viability z-score, knock-down alone":-0.27}
{"target gene":"DCLK1 (doublecortin like kinase 1)","viability z-score, knock-down alone":0.524}
{"target gene":"NIM1K (NIM1 serine/threonine protein kinase)","viability z-score, knock-down alone":0.388}
{"target gene":"BRSK1 (BR serine/threonine kinase 1)","viability z-score, knock-down alone":-0.0219}
{"target gene":"WNK1 (WNK lysine deficient protein kinase 1)","viability z-score, knock-down alone":0.9}
{"target gene":"DYRK1B","viability z-score, knock-down alone":0.137}
{"target gene":"ACVR2A (activin A receptor type 2A)","viability z-score, knock-down alone":0.9}
{"target gene":"PTK6 (protein tyrosine kinase 6)","viability z-score, knock-down alone":0.533}

No new results follow: an excerpt of the list.
{"target gene":"WEE1 (WEE1 G2 checkpoint kinase)","viability z-score, knock-down alone":-2.93}
{"target gene":"CDK18 (cyclin dependent kinase 18)","viability z-score, knock-down alone":-0.27}

Further reagents follow.
{"target gene":"GK2 (glycerol kinase 2)","viability z-score, knock-down alone":-0.296}
{"target gene":"GRK7 (G protein-coupled receptor kinase 7)","viability z-score, knock-down alone":-0.745}
{"target gene":"VRK1 (VRK serine/threonine kinase 1)","viability z-score, knock-down alone":0.31}
{"target gene":"ALDH18A1 (aldehyde dehydrogenase 18 family member A1)","viability z-score, knock-down alone":-0.222}
{"target gene":"STK31 (serine/threonine kinase 31)","viability z-score, knock-down alone":0.33}
{"target gene":"PRKCD (protein kinase C delta)","viability z-score, knock-down alone":-0.726}
{"target gene":"ALK (ALK receptor tyrosine kinase)","viability z-score, knock-down alone":-2.28}
{"target gene":"PRKACB (protein kinase cAMP-activated catalytic subunit beta)","viability z-score, knock-down alone":0.9}
{"target gene":"KIT (KIT proto-oncogene, receptor tyrosine kinase)","viability z-score, knock-down alone":0.9}
